Drawing on PMC4065374, this text covers binding for one molecule.

These are yes or no findings as the source states them, for the method shown. Binding seen in cells or lysates may run through a third protein. A result given as binding can be weak or reduced; the word gives no strength. Sequences can lack the tags named with a protein.

For the test, the target named is Aeromonas caviae Maf1 with C-terminal penta-His tag (Maf1-His) (Aeromonas caviae). The test is described as follows: pull-down; in vivo pull-down: Maf1-His expressed in A. caviae (wild-type or neuB mutant) purified with associated proteins from the lysate by nickel-affinity chromatography (20 mM phosphate pH 7.4, 0.5 M NaCl, 50 mM imidazole wash; imidazole step elution); fractions blotted with α-His and α-FlaA/B(−pse).

B1: unglycosylated Aeromonas caviae flagellin FlaB in a neuB mutant (protein, UniProt Q9R9R8 1-305)
chain: MAMYINTNTSSLNAQRNLMNTSKSMDTSYTRLASGLRINSAKDDAAGLQISNRLTSQINGLDQGNRNANDGISLAQTAEGAMDEVTGMLQRMRTLAQQSANGSNSDKDRAALQKEVNQLGAEINRISKDTTFAGTKLLDGNYSGKFQVGADANQTIGFSLSQAGGFSISGIAKAAGTTIDIVSGPAGSVTTATGISLIFVSGSAGGISISTQSKAQAVLAAADAMLEVVDGKRAELGAVQNRLDSTIRNQANISENVSAARSRIRDANFATETANMTKHNILQQAASSILAQANQRPQSALQLLG
For B1, the binding result is “binds”.
